Experimental data taken from the supplement of paper PMC7125110.
± gives the standard error. Many of these values have a large error.

B1: glmS ribozyme (parent)
chain: AUAAAAGCGCCAGAACUACAGAAAUGUAGUUGACGAGGAGGAGGUUUAUCGAAUUUUCGGCGGAUGCCUCCAAA

Variants of: B1
Assay: self-cleavage kobs at 160 uM GlcN6P; higher = faster cleavage; RNA array
Conditions: with glucosamine-6-phosphate
In short: (§1)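 Barcoded glmS ribozyme variants on sequenced MiSeq chips were transcribed in situ by E. coli RNA polymerase and tracked through a hybridised Cy3 probe at 37 °C. Glucosamine-6-phosphate (40 μM to 10 mM) in HEPES/KCl/Mg(OAc)2 buffer was flowed in, and tiles were imaged over ~14 h. Signals were normalised to baseline and to non-cleaving reference variants; per-tile medians were fit to one- or two-exponential decays to give kobs. kcat and KM came from weighted Michaelis–Menten fits across concentrations.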

Variant	self-cleavage kobs at 160 uM GlcN6P
G13U G29U C70A	2.37e-05 ± 2.1e-05 s⁻¹
C8U G13A G35A G38A G63A C68U	2.81e-05 ± 2.5e-05 s⁻¹
A14G A52U	2.9e-05 ± 1.6e-05 s⁻¹
A53G C58U C70A	3.63e-05 ± 2.3e-05 s⁻¹
A15U C50G A53U U55A	0.000501 ± 0.00031 s⁻¹
A15U G66C C68A	2.94e-05 ± 2.8e-05 s⁻¹
A48G U56A U69G	3.03e-05 ± 1.9e-05 s⁻¹
C11A U31A	1.98e-05 ± 1.7e-05 s⁻¹
A6C U31G U69G	2.42e-05 ± 2.2e-05 s⁻¹
G9C A12C C50G U65G C71U	3.03e-05 ± 2.8e-05 s⁻¹
C8U C10U C58G G60A	7.44e-05 ± 4e-05 s⁻¹
C10A A12C	1.11e-05 ± 1e-05 s⁻¹
A14G A64U	1.83e-05 ± 1.5e-05 s⁻¹
A14G A64C	2.87e-05 ± 1.8e-05 s⁻¹
C61G C70G	1.85e-05 ± 1.6e-05 s⁻¹
U57A U69A	2.07e-05 ± 1.5e-05 s⁻¹

Variants of: B1
Assay: self-cleavage kobs at 640 uM GlcN6P; higher = faster cleavage; RNA array
Conditions: with glucosamine-6-phosphate
In short: as §1

Variant	self-cleavage kobs at 640 uM GlcN6P
C50U U56A C68U	3.43e-05 ± 3.3e-05 s⁻¹
U47A U55C U69C	2.98e-05 ± 1.6e-05 s⁻¹
G29A G38U C71G	3.26e-05 ± 3.1e-05 s⁻¹
U31G A48C	1.83e-05 ± 1.6e-05 s⁻¹
C16U C58U	3.24e-05 ± 1.9e-05 s⁻¹
A48U G66A	3.45e-05 ± 1.8e-05 s⁻¹
A64C C71U	2.14e-05 ± 1.1e-05 s⁻¹
C50U U69C	2.17e-05 ± 1.3e-05 s⁻¹
A53G C58U C70A	4.6e-05 ± 2.3e-05 s⁻¹
U46A C68A	3.48e-05 ± 3.3e-05 s⁻¹
A53U U54C C67U C70A	3.38e-05 ± 2.9e-05 s⁻¹
C16U A42U U54G	2.83e-05 ± 1.8e-05 s⁻¹
A15U C50G A53U U55A	2.42e-05 ± 1.8e-05 s⁻¹
A53C U56A G59A	2.32e-05 ± 2.1e-05 s⁻¹
A39U G41U C71A	5.18e-05 ± 2.6e-05 s⁻¹
G59U C67G	1.42e-05 ± 1.4e-05 s⁻¹
A48G U56A U69G	3.12e-05 ± 2.6e-05 s⁻¹
U45A U46C	0.0551 ± 0.034 s⁻¹
A15G G32U C71G	2.89e-05 ± 1.8e-05 s⁻¹
C58U G59U C67A	2.59e-05 ± 2e-05 s⁻¹
C16G G29A U57A C67G	0.000318 ± 0.00016 s⁻¹
G32A U55A C68A	3.42e-05 ± 2.7e-05 s⁻¹
G51A C71G	2.4e-05 ± 1.5e-05 s⁻¹
C61G C70G	2.15e-05 ± 1.4e-05 s⁻¹
U57A U69A	2.79e-05 ± 1.9e-05 s⁻¹
A15U U56C U57G G63A C70G	9.11e-05 ± 5.8e-05 s⁻¹
C50G C70U	0.0013 ± 0.00074 s⁻¹

Already shown: an excerpt of the list.
Variant	self-cleavage kobs at 640 uM GlcN6P
G32A U55A C68A	3.42e-05 ± 2.7e-05 s⁻¹
G51A C71G	2.4e-05 ± 1.5e-05 s⁻¹

Variants of: B1
Assay: self-cleavage kobs at 10000 uM GlcN6P; higher = faster cleavage; RNA array
Conditions: with glucosamine-6-phosphate
In short: as §1

Variant	self-cleavage kobs at 10000 uM GlcN6P
C50U U69C	1.62e-05 ± 1.1e-05 s⁻¹
G32A U55A C68A	2.87e-05 ± 2.1e-05 s⁻¹

Variants of: B1
Assay: self-cleavage kobs at 2500 uM GlcN6P; higher = faster cleavage; RNA array
Conditions: with glucosamine-6-phosphate
In short: as §1

Variant	self-cleavage kobs at 2500 uM GlcN6P
G59U C67G	2.68e-05 ± 1.5e-05 s⁻¹
C16G G29A U57A C67G	3.68e-05 ± 1.9e-05 s⁻¹
G51A C71G	2.14e-05 ± 1.4e-05 s⁻¹
